Results published in BigSolDB 2.1.

NC(Cc1ccc(O)cc1)C(=O)O (racemic)
solubility (mole fraction)
Details	278.15 K	283.15 K	288.15 K	293.15 K	298.15 K	303.15 K	308.15 K	313.15 K	318.15 K
in DMF	3.1e-05	4.1e-05	5.2e-05	6.6e-05	8.3e-05	9.9e-05	0.000122	0.00014	0.000155
in water	2.3e-05	2.7e-05	3.4e-05	3.8e-05	4.5e-05	5.6e-05	6.5e-05	7.4e-05	8.6e-05
